# Results from PubChem BioAssay AID248 (DTP/NCI, 2004).
# The list shows only some results of the screen, not a fair sample: it gathers tests that were run many times, whatever their T/C, doses with no T/C, and many T/C values between a quarter and a half above the control. Other doses and runs of a compound stand elsewhere. T/C: endpoint of the treated group in % of that of the vehicle group. Some entries give survivors of the animals treated and no T/C: the source holds a T/C of zero for them, seemingly a mark for toxic or unscored doses. Some survivor counts are full or nearly so, which does not show that the dose was tolerated: the source hardly ever lists a survival T/C far under the control, and the zero likely stands for such cases as well. Survivors were counted at the toxicity check, usually on the fifth day, unless a day is given; later deaths do not show. Schedule codes are those of the source, taken here to give the interval after Q, in days (D) or hours (H), and the number of doses after X. Some doses were run more than once; the values are given in rising order. Some schedules carry Z or #; the key to these is not given. Where survival is the endpoint, this PubChem deposit counts one and a half times the control or more as active, and values a quarter to a half above the control carry no call in these data; other NCI protocols may use other cut-offs. Some T/C values carry the count of animals alive at the toxicity check (mostly the fifth day); where none is given, no animal had died by that day.
# System: L1210 leukemia ip in BDF1 mice, survival T/C
# Assay: NCI In Vivo Anticancer Drug Screen. Data for tumor model L1210 Leukemia (intraperitoneal) in B6D2F1 (BDF1) mice
# Conditions: T/C endpoint: mean survival time, higher T/C = longer survival
structure (smiles),measurement,setting,value
N=C(N)SCc1c2ccccc2c(CSC(=N)N)c2ccccc12,T/C,"dose: 40.0 mg/kg/injection, schedule: Q01DX006 (iv), vehicle: carboxymethylcellulose (CMC)",125 % of control [5 of 6 alive]
same,T/C,"dose: 40.0 mg/kg/injection, schedule: Q01DX006 (iv), vehicle: saline",125 % of control
same,T/C,"dose: 40.0 mg/kg/injection, schedule: Q01DX Z (im), vehicle: carboxymethylcellulose (CMC)",142 % of control
same,T/C,"dose: 40.0 mg/kg/injection, schedule: Q01DX Z (ip), vehicle: carboxymethylcellulose (CMC)",148 % of control
same,T/C,"dose: 40.0 mg/kg/injection, schedule: Q08DX002 (ip), vehicle: saline",142 % of control
same,T/C,"dose: 50.0 mg/kg/injection, schedule: Q01DX001 (ip), vehicle: carboxymethylcellulose (CMC)",126 % of control
same,T/C,"dose: 50.0 mg/kg/injection, schedule: Q01DX005 (ip), vehicle: carboxymethylcellulose (CMC)",135 % of control
same,T/C,"dose: 50.0 mg/kg/injection, schedule: Q01DX009 (ip), vehicle: carboxymethylcellulose (CMC)",135 % of control
same,survivor count,"dose: 50.0 mg/kg/injection, schedule: Q01DX009 (ip), vehicle: clinical formulation",0 of 6
same,survivor count,"dose: 50.0 mg/kg/injection, schedule: Q01DX015 (ip), vehicle: clinical formulation",0 of 6
same,T/C,"dose: 50.0 mg/kg/injection, schedule: Q01DX017 (ip), vehicle: carboxymethylcellulose (CMC)",141 % of control
same,survivor count,"dose: 50.0 mg/kg/injection, schedule: Q03HX040 (ip), vehicle: carboxymethylcellulose (CMC)",8 of 8
same,T/C,"dose: 50.0 mg/kg/injection, schedule: Q04DX003 (ip), vehicle: carboxymethylcellulose (CMC)",135 % of control
same,T/C,"dose: 50.0 mg/kg/injection, schedule: Q07DX Z (ip), vehicle: saline",134 % of control
same,T/C,"dose: 50.0 mg/kg/injection, schedule: Q#A X002 (ip), vehicle: saline",138 % of control
same,T/C,"dose: 60.0 mg/kg/injection, schedule: Q03DX006 (ip), vehicle: carboxymethylcellulose (CMC)",135 and 144 % of control
same,survivor count,"dose: 60.0 mg/kg/injection, schedule: Q08DX002 (ip), vehicle: clinical formulation",0 of 6
same,T/C,"dose: 60.0 mg/kg/injection, schedule: Q08DX002 (ip), vehicle: saline",137 and 142 % of control
same,survivor count,"dose: 65.0 mg/kg/injection, schedule: Q## X008 (ip), vehicle: carboxymethylcellulose (CMC)",1 of 10
same,T/C,"dose: 70.0 mg/kg/injection, schedule: Q01DX001 (ip), vehicle: carboxymethylcellulose (CMC)",143 % of control
same,T/C,"dose: 70.0 mg/kg/injection, schedule: Q07DX003 (ip), vehicle: carboxymethylcellulose (CMC)",132 and 144 % of control
same,T/C,"dose: 75.0 mg/kg/injection, schedule: Q03DX Z (ip), vehicle: saline",144 % of control
same,T/C,"dose: 80.0 mg/kg/injection, schedule: Q01DX006 (iv), vehicle: carboxymethylcellulose (CMC)",135 % of control [4 of 6 alive]
same,T/C,"dose: 80.0 mg/kg/injection, schedule: Q01DX006 (iv), vehicle: saline",133 % of control [5 of 6 alive]
same,T/C,"dose: 80.0 mg/kg/injection, schedule: Q01DX Z (im), vehicle: carboxymethylcellulose (CMC)",126 % of control
same,T/C,"dose: 80.0 mg/kg/injection, schedule: Q01DX Z (ip), vehicle: carboxymethylcellulose (CMC)",139 % of control
same,T/C,"dose: 80.0 mg/kg/injection, schedule: Q#A X Z (ip), vehicle: carboxymethylcellulose (CMC)",126 % of control
same,survivor count,"dose: 82.0 mg/kg/injection, schedule: Q01DX Z (ip), vehicle: saline",6 of 6
same,survivor count,"dose: 90.0 mg/kg/injection, schedule: Q08DX002 (ip), vehicle: clinical formulation",0 of 6
same,T/C,"dose: 90.0 mg/kg/injection, schedule: Q08DX002 (ip), vehicle: saline",129 % of control
same,T/C,"dose: 100.0 mg/kg/injection, schedule: Q01DX001 (ip), vehicle: carboxymethylcellulose (CMC)","111, 123, 131, 230 % of control"
same,T/C,"dose: 100.0 mg/kg/injection, schedule: Q01DX005 (ip), vehicle: carboxymethylcellulose (CMC)",148 % of control
same,T/C,"dose: 100.0 mg/kg/injection, schedule: Q01DX009 (ip), vehicle: carboxymethylcellulose (CMC)",143 % of control
same,T/C,"dose: 100.0 mg/kg/injection, schedule: Q01DX009 (ip), vehicle: saline",129 % of control
same,survivor count,"dose: 100.0 mg/kg/injection, schedule: Q01DX015 (ip), vehicle: clinical formulation",0 of 6
same,T/C,"dose: 100.0 mg/kg/injection, schedule: Q01DX017 (ip), vehicle: carboxymethylcellulose (CMC)",135 % of control
same,survivor count,"dose: 100.0 mg/kg/injection, schedule: Q03HX008 (ip), vehicle: carboxymethylcellulose (CMC)",10 of 10 and 8 of 8
same,survivor count,"dose: 100.0 mg/kg/injection, schedule: Q03HX008 (ip), vehicle: saline",10 of 10
same,survivor count,"dose: 100.0 mg/kg/injection, schedule: Q03HX016 (ip), vehicle: carboxymethylcellulose (CMC)",7 of 10
same,survivor count,"dose: 100.0 mg/kg/injection, schedule: Q03HX016 (ip), vehicle: saline",9 of 10
same,T/C,"dose: 100.0 mg/kg/injection, schedule: Q04DX003 (ip), vehicle: carboxymethylcellulose (CMC)",132 % of control
same,survivor count,"dose: 100.0 mg/kg/injection, schedule: Q06HX004 (ip), vehicle: carboxymethylcellulose (CMC)",9 of 10
same,T/C,"dose: 100.0 mg/kg/injection, schedule: Q08DX002 (ip), vehicle: carboxymethylcellulose (CMC)",126 % of control
same,T/C,"dose: 100.0 mg/kg/injection, schedule: Q08DX002 (ip), vehicle: saline",149 % of control
same,T/C,"dose: 100.0 mg/kg/injection, schedule: Q## X009 (ip), vehicle: carboxymethylcellulose (CMC)",139 % of control
same,survivor count,"dose: 134.0 mg/kg/injection, schedule: Q08DX002 (ip), vehicle: clinical formulation",0 of 6
same,T/C,"dose: 140.0 mg/kg/injection, schedule: Q01DX001 (ip), vehicle: carboxymethylcellulose (CMC)",125 and 139 % of control
same,T/C,"dose: 140.0 mg/kg/injection, schedule: Q07DX003 (ip), vehicle: carboxymethylcellulose (CMC)",143 % of control
